The assay concerns Escherichia coli BW25113. The experiment in a line: plate-normalized OD600 growth (mean of duplicates) (OD600 (normalized)); higher = more growth (less inhibition). To be noted: 10 µM. The procedure: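 E. coli BW25113 in LB (100 µl, 96-well, no shaking) was exposed to 10 µM of each compound from a ~30,000-member library and grown at 37°C for 24 h or 15°C for 48 h, in duplicate. Growth was read as OD600 and the duplicate ODs were normalized across screening plates to correct plate-to-plate variation. Hits were >3σ below the mean OD600 at 15°C and <2σ below the mean at 37°C.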

Whole data set: some 2,300 compounds, median “plate-normalized OD600 growth (mean of duplicates)” near 0.29, cut for the lowest 2% near 0.22. This is one part of the list.

Take `N#C/C(=C\c1ccc(OC(=O)c2cccc([N+](=O)[O-])c2)cc1)C(=O)c1ccccc1`: the “plate-normalized OD600 growth” value amounted to 0.211 (temperature: 15°C, 48 h) and 0.634 (temperature: 37°C, 24 h).
For `NNC(=O)c1cnn(-c2ccc(Cl)cc2)c1C(F)(F)F` the same measures were 0.253 and 0.627.
The like results for `CSc1ccc(/C=C2\N=C(c3ccccc3)N(c3ccc(C(=O)Nc4ccc(Br)cc4)cc3)C2=O)cc1` were, in that order, 0.257 and 0.649.
For `Cc1ccc(N2CCN(S(=O)(=O)c3cc(C(C)C)ccc3C)CC2)cc1Cl` the same measures were 0.255 and 0.62.
`C#CCOc1ccc2ccccc2c1/C=C1\SC(=Nc2ccc(C(=O)O)cc2)NC1=O`: the “plate-normalized OD600 growth” value (temperature: 15°C, 48 h) is 0.248 and the “plate-normalized OD600 growth” value (temperature: 37°C, 24 h) was 0.64.
`NC(=O)CCN1CCn2c1nc1ccccc12`: the “plate-normalized OD600 growth” value runs as follows: (temperature: 15°C, 48 h) 0.255; (temperature: 37°C, 24 h) 0.636.
The like results for `O=C(O)c1cccc(S(=O)(=O)Nc2ccc(Cl)cc2)c1` were, in that order, 0.257 and 0.625.
As for `C/C(CC(=O)Nc1ccc(N(C)C)cc1)=N\NC(=O)COc1ccc(C)cc1`, the “plate-normalized OD600 growth” value reads like this: (temperature: 15°C, 48 h) 0.236; (temperature: 37°C, 24 h) 0.627.
For `COc1ccc(/C=C/C2=CCN(Cc3ccccc3)CC2)cc1` the same measures were 0.239 and 0.606.
For `O=[N+]([O-])c1cc(C(F)(F)F)cnc1Br` the same measures were 0.259 and 0.604.
For `COc1cc2c(cc1OC)C(C)N(S(=O)(=O)c1cn(C)c(C)n1)CC2` (configuration not stated) the same measures were 0.245 and 0.611.
As for `CC(=O)c1sc(SCc2ccc(Cl)cc2)c2c1CC(C)(C)CC2=O`, the “plate-normalized OD600 growth” value runs as follows: (temperature: 15°C, 48 h) 0.231; (temperature: 37°C, 24 h) 0.652.
The like results for `COc1cccc(C=Nc2ccc(N3CCOCC3)cc2)c1OC(C)C` were, in that order, 0.251 and 0.631.
On to `COc1ccccc1N(C(=O)c1ccc(C)cc1)c1nc(C(F)(F)F)c(-c2ccccc2)s1`, for which the “plate-normalized OD600 growth” value runs as follows: (temperature: 15°C, 48 h) 0.238; (temperature: 37°C, 24 h) 0.639.
For `O=C1NC2CC2N1C(=O)OCc1ccccc1` (configuration not stated) the same measures were 0.223 and 0.618.
The like results for `NC(N)=Nc1nc(-c2cc(Cl)sc2Cl)cs1` were, in that order, 0.242 and 0.607.
As for `COc1ccc(-c2ccnc(SCC(=O)NCCSCc3ccco3)n2)cc1`, the “plate-normalized OD600 growth” value by setting is: (temperature: 15°C, 48 h) 0.246; (temperature: 37°C, 24 h) 0.61.
For `CCOC(=O)c1ccc(NC(=O)CCC(=O)O)cc1`, the “plate-normalized OD600 growth” value runs as follows: (temperature: 15°C, 48 h) 0.256; (temperature: 37°C, 24 h) 0.611.
`Cc1ccc(OC(=O)NC2CCC(CC3CCC(NC(=O)Oc4ccc(C)c(C)c4)CC3)CC2)cc1C` (configuration not stated): the “plate-normalized OD600 growth” value is 0.219 (temperature: 15°C, 48 h) and 0.611 (temperature: 37°C, 24 h).
For `CN(C)/C=C(\C#N)C(=O)Nc1ccc(F)c(Cl)c1`, the “plate-normalized OD600 growth” value was 0.236 (temperature: 15°C, 48 h) and 0.602 (temperature: 37°C, 24 h).
For `CN1CCC(=NNC(=O)CCSc2ccc(Cl)cc2)CC1` the same measures were 0.254 and 0.609.
Consider `COc1ccccc1N=C(N)SCc1ccccc1`, for which the “plate-normalized OD600 growth” value runs as follows: (temperature: 15°C, 48 h) 0.236; (temperature: 37°C, 24 h) 0.606.
For `CC(C)n1c(Sc2nccn2C)nc2c1c(=O)n(C)c(=O)n2C` the same measures were 0.251 and 0.654.
For `Cn1c(=O)c2c(nc3n2CC(c2ccc([N+](=O)[O-])cc2)=NN3)n(C)c1=O` the same measures were 0.27 and 0.615.
For `Fc1ccccc1Nc1nc2nonc2nc1N1CCOCC1` the same measures were 0.314 and 0.649.
With `CCOC(=O)Cn1c2c(sc1=NC(=O)c1ccc(Cl)cc1)CC(C(C)(C)C)CC2` (configuration not stated), the “plate-normalized OD600 growth” value runs as follows: (temperature: 15°C, 48 h) 0.239; (temperature: 37°C, 24 h) 0.616.
For `Nc1cc(-c2ccc(Cl)cc2)nc(N)n1`, the “plate-normalized OD600 growth” value by setting is: (temperature: 15°C, 48 h) 0.228; (temperature: 37°C, 24 h) 0.59.
The like results for `Cc1cc(=O)oc2c(CN(C)C)c(O)ccc12` were, in that order, 0.236 and 0.599.
The like results for `COC(=O)c1ccc(OCC(=O)Nc2nc3c(s2)CCCC3)cc1` were, in that order, 0.246 and 0.62.
As for `Cc1cc(O)c(C)c(O)c1/C=N/NC(=O)CNC(=O)c1ccco1`, the “plate-normalized OD600 growth” value was found to be 0.245 (temperature: 15°C, 48 h) and 0.61 (temperature: 37°C, 24 h).
For `Cc1ccc(/C=N/NC(=O)c2ccccc2N)cc1Br` the same measures were 0.228 and 0.592.
Regarding `O=C(O)C1c2ccccc2Oc2ccccc21`, the “plate-normalized OD600 growth” value was 0.221 (temperature: 15°C, 48 h) and 0.606 (temperature: 37°C, 24 h).
Regarding `O=C(N/N=C\c1ccc(-c2ccc(Cl)cc2Cl)o1)/C(=C\c1ccc2c(c1)OCO2)NC(=O)c1ccccc1`, the “plate-normalized OD600 growth” value was 0.231 (temperature: 15°C, 48 h) and 0.631 (temperature: 37°C, 24 h).
The like results for `Clc1ccc(Sc2ncnc3ccsc23)cc1` were, in that order, 0.221 and 0.613.
For `CSc1ncc(C#N)c2nc(-c3ccc(N(C)C)cc3)nn12` the same measures were 0.241 and 0.625.
The like results for `CCC(=O)N1CCN(c2ccc(NCc3ccccc3)cc2)CC1` were, in that order, 0.252 and 0.6.
Turning to `O=C(CSc1nc2ccc(N3C(=O)c4cccc5cccc(c45)C3=O)cc2s1)NC1CC1`, the “plate-normalized OD600 growth” value reads like this: (temperature: 15°C, 48 h) 0.246; (temperature: 37°C, 24 h) 0.604.
For `COC(=O)N1[C@@H](c2ccccc2)N(c2ccc(OC)cc2)[C@H](c2ccccc2)N1C(=O)OC` the same measures were 0.246 and 0.61.
For `CCOc1ccc(-n2c(-c3ccccc3)cc(C=Nc3ccc4ncccc4c3)c2-c2ccccc2)cc1` the same measures were 0.263 and 0.61.
For `Cc1cc(C(O)(C(F)(F)F)C(F)(F)F)cc(C)c1O`, the “plate-normalized OD600 growth” value is 0.249 (temperature: 15°C, 48 h) and 0.618 (temperature: 37°C, 24 h).
`COC(=O)C1=NN(c2ccccc2Cl)C2(S1)c1ccccc1C(C)=NN2c1ccccc1` (configuration not stated): the “plate-normalized OD600 growth” value by setting is: (temperature: 15°C, 48 h) 0.234; (temperature: 37°C, 24 h) 0.641.
As for `Cc1cc(C(=O)O/N=C(\N)CSc2ncccc2C(F)(F)F)no1`, the “plate-normalized OD600 growth” value runs as follows: (temperature: 15°C, 48 h) 0.254; (temperature: 37°C, 24 h) 0.618.
For `Cc1ccc(C(=O)O)c(C(=O)Nc2nc3ccccc3s2)c1` the same measures were 0.26 and 0.605.
Regarding `CCOC(=O)c1c(CN2CCN(CCO)CC2)n(C)c2cc(Br)c(OC(C)=O)cc12`, the “plate-normalized OD600 growth” value runs as follows: (temperature: 15°C, 48 h) 0.246; (temperature: 37°C, 24 h) 0.602.
For `Cc1oc(CC(C)C)cc1C(=O)Nc1cccc(C(=O)O)c1`, the “plate-normalized OD600 growth” value is, setting by setting: (temperature: 15°C, 48 h) 0.255; (temperature: 37°C, 24 h) 0.643.
For the compound `O=C1NN(c2ccccc2)C(=S)Nc2ccccc21`, the “plate-normalized OD600 growth” value (temperature: 15°C, 48 h) is 0.243 and the “plate-normalized OD600 growth” value (temperature: 37°C, 24 h) was 0.604.
Consider `CC(=O)NC1=NC(=O)/C(=C2/C(=O)N(C(C)=O)c3ccccc32)S1`, for which the “plate-normalized OD600 growth” value (temperature: 15°C, 48 h) came out at 0.231 and the “plate-normalized OD600 growth” value (temperature: 37°C, 24 h) was 0.58.
For `Cc1onc(-c2ccccc2Cl)c1C(=O)NNC(=O)c1ccccc1F` the same measures were 0.249 and 0.645.
With `O=C1CC(n2nnn(-c3cccc(Cl)c3)c2=S)C2COC1O2` (configuration not stated), the “plate-normalized OD600 growth” value (temperature: 15°C, 48 h) came out at 0.232 and the “plate-normalized OD600 growth” value (temperature: 37°C, 24 h) is 0.605.
The like results for `COc1cc(C=O)ccc1OCC(=O)O` were, in that order, 0.269 and 0.622.
Consider `CCOC(=N)c1ccc(F)c(Cl)c1`, for which the “plate-normalized OD600 growth” value runs as follows: (temperature: 15°C, 48 h) 0.242; (temperature: 37°C, 24 h) 0.589.
For the compound `NNC(=S)Nc1cc(C(F)(F)F)ccc1Cl`, the “plate-normalized OD600 growth” value came to 0.248 (temperature: 15°C, 48 h) and 0.607 (temperature: 37°C, 24 h).
The like results for `O=C(Nc1cc2cc[nH]c2cn1)c1ccccc1` were, in that order, 0.237 and 0.623.
The like results for `CCCCOc1ccc(N2C(=O)CC(NCc3ccc(S(N)(=O)=O)cc3)C2=O)cc1` (configuration not stated) were, in that order, 0.247 and 0.614.
The like results for `COc1ccnc(Cl)c1C(=O)O` were, in that order, 0.223 and 0.57.
In the case of `COc1cc(OC)c(C2C(C#N)=C(N)Oc3n[nH]c(-c4cccnc4)c32)cc1OC` (configuration not stated), the “plate-normalized OD600 growth” value was determined as 0.244 (temperature: 15°C, 48 h) and 0.612 (temperature: 37°C, 24 h).
For `CCC1C(=O)C2=C(CC(C)(C)CC2=O)N(c2ccc(OC)cc2)C1c1ccccc1` (configuration not stated) the same measures were 0.232 and 0.624.
`Cc1cccc(N=Cc2ccc(OCc3ccccc3Cl)cc2)c1`: the “plate-normalized OD600 growth” value is, setting by setting: (temperature: 15°C, 48 h) 0.252; (temperature: 37°C, 24 h) 0.606.
For `O=C(Nc1cc(C(F)(F)F)ccc1Cl)C(=O)Nc1cc(C(F)(F)F)ccc1Cl` the same measures were 0.238 and 0.614.
For `COC(=O)c1cc([N+](=O)[O-])ccc1N1CCOCC1` the same measures were 0.236 and 0.626.
As to `CCOC(=O)c1ccc(-c2ccc(/C=c3/sc4nc5c(C)cc(C)cc5n4c3=O)o2)cc1`, the “plate-normalized OD600 growth” value came to 0.234 (temperature: 15°C, 48 h) and 0.596 (temperature: 37°C, 24 h).
